Source: PubChem BioAssay AID686938 (Drosophila RNAi Screening Center, 2013)
Screen: 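Looking for CRAC channel components and the factors controlling them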 (primary screen). Cells: Drosophila S2R+ cells. Reagents: long dsRNA against Drosophila genes, about 0.25 µg dsRNA per well, roughly 10,000 cells. Duration: 5 days of knock-down before the calcium assay. Treatment: thapsigargin (SERCA pump blocker) to empty calcium stores; entry signal taken 4 min after adding it. Measured: 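Duplicate raw fluo-4 intensities per well from a plate reader, at rest and four minutes after thapsigargin emptied calcium stores; entry-to-rest ratio filled for only some wells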. Scale: calcium entry signal: higher = stronger calcium signal after store depletion; entry to resting ratio: higher = more calcium entry relative to resting level; resting calcium signal: higher = higher resting calcium signal. Hit rule: 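Called when the plate z-score of the entry-to-rest ratio, mean of duplicates, falls below −3; wells with low overall dye signal (Fmax z below −2) or more than five off-targets excluded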. Meaning of the calls: active = strongly reduced calcium entry; inactive = no strong reduction.
In all, the deposit lists about 23,000 reagents; this is an unselected part of those with a known target gene and a result. In the full data, 75 (0.33%) got an active call. 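Raw plate signals without normalisation; calls rest on plate z-scores that were not deposited; ratio present for only 364 wells.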 The record does not give: the dose of the treatment.

no.	gene	amplicon	calcium entry signal, replicate 1 (fluorescence units)	calcium entry signal, replicate 2 (fluorescence units)	entry to resting ratio	resting calcium signal, replicate 1 (fluorescence units)	resting calcium signal, replicate 2 (fluorescence units)	call
1	stol (GeneID 34921)	DRSC01956	5.18e7	3.61e7		2.25e7	1.78e7	inactive
2	nrm (GeneID 40515)	DRSC11597	3.94e7	3.30e7		2.03e7	1.69e7	inactive
3	nrm (GeneID 40515)	DRSC11599	3.18e7	3.27e7		1.73e7	1.58e7	inactive
4	nrm (GeneID 40515)	DRSC11897	2.82e7	4.70e7		1.33e7	1.92e7	inactive
5	corolla (GeneID 32739)	DRSC20102	4.31e7	4.45e7		2.02e7	2.03e7	inactive
6	moody (GeneID 31168)	DRSC18515	6.66e7	6.48e7	2.2	3.06e7	2.77e7	inactive
7	CG43072 (GeneID 12798436)	DRSC11688	3.34e7	4.87e7		1.65e7	2.16e7	inactive
8	CG15464 (retired record) (GeneID 31436)	DRSC18047	3.04e7	4.56e7		1.54e7	2.20e7	inactive
9	CG15464 (retired record) (GeneID 31436)	DRSC22086	3.86e7	4.11e7		1.81e7	2.40e7	inactive
10	ND-15 (GeneID 33179)	DRSC00311	3.84e7			1.75e7		inactive
11	sip1 (GeneID 44238)	DRSC03609	2.83e7	3.28e7		1.46e7	1.45e7	inactive
12	sip1 (GeneID 44238)	DRSC22648	4.04e7	3.46e7		2.56e7	1.74e7	inactive
13	H15 (GeneID 33769)	DRSC03339	2.44e7	2.25e7		1.23e7	9.99e6	inactive
14	H15 (GeneID 33769)	DRSC22199	3.98e7	6.90e7		1.88e7	3.07e7	inactive
15	CG7970 (GeneID 38205)	DRSC08605	3.89e7	3.45e7		1.62e7	1.69e7	inactive
16	Su(H) (GeneID 34881)	DRSC03445	3.93e7	2.43e7		1.59e7	1.12e7	inactive
17	CG18809 (GeneID 59170)	DRSC19818	4.33e7	4.03e7		1.95e7	1.59e7	inactive
18	GAA1 (GeneID 31517)	DRSC18267	2.70e7	2.94e7		1.25e7	1.41e7	inactive
19	CG12115 (GeneID 31853)	DRSC17811	1.80e7	2.71e7		8.70e6	1.23e7	inactive
20	Ptr (GeneID 35546)	DRSC04852	4.24e7	4.37e7		2.13e7	2.01e7	inactive
21	Ptr (GeneID 35546)	DRSC21517	3.69e7	3.45e7		1.93e7	1.67e7	inactive
22	wnd (GeneID 40143)	DRSC09626	3.81e7	3.73e7		2.13e7	1.86e7	inactive
23	wnd (GeneID 40143)	DRSC11046	2.11e7	3.32e7		1.10e7	2.28e7	inactive
24	wnd (GeneID 40143)	DRSC21373	4.13e7	3.77e7		2.12e7	1.73e7	inactive
